Source: patent publication US20250060359A1, “FUSION PROTEINS AND METHODS FOR MONITORING FIBRONECTIN MATRIX ASSEMBLY” (The Trustees of Princeton University, priority 2023, published 2025)
Results are given in words; binding and its absence hold for the method and conditions named. Some entries that bind do so weakly or less than the wild type.

Sequences of proteins named here, by UniProt entry; tags and fusion partners are left off. Residues count along the entry.
UniProt P02751, residues 32-608: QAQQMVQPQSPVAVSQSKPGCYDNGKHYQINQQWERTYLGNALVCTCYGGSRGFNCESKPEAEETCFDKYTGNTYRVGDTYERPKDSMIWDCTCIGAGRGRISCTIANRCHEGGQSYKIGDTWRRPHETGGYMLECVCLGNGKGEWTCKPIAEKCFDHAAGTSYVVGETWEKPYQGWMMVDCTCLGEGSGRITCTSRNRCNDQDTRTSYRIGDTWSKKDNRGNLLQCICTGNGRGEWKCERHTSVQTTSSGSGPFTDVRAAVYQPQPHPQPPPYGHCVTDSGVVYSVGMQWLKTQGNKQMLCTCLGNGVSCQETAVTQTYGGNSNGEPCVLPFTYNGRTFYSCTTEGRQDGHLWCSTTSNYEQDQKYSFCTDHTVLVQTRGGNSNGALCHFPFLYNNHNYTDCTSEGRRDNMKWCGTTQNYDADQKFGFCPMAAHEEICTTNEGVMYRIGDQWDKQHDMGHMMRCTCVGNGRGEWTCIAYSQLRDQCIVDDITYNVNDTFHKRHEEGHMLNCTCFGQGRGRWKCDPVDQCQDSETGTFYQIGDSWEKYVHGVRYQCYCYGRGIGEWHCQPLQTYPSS
UniProt P11276, residues 33-2477: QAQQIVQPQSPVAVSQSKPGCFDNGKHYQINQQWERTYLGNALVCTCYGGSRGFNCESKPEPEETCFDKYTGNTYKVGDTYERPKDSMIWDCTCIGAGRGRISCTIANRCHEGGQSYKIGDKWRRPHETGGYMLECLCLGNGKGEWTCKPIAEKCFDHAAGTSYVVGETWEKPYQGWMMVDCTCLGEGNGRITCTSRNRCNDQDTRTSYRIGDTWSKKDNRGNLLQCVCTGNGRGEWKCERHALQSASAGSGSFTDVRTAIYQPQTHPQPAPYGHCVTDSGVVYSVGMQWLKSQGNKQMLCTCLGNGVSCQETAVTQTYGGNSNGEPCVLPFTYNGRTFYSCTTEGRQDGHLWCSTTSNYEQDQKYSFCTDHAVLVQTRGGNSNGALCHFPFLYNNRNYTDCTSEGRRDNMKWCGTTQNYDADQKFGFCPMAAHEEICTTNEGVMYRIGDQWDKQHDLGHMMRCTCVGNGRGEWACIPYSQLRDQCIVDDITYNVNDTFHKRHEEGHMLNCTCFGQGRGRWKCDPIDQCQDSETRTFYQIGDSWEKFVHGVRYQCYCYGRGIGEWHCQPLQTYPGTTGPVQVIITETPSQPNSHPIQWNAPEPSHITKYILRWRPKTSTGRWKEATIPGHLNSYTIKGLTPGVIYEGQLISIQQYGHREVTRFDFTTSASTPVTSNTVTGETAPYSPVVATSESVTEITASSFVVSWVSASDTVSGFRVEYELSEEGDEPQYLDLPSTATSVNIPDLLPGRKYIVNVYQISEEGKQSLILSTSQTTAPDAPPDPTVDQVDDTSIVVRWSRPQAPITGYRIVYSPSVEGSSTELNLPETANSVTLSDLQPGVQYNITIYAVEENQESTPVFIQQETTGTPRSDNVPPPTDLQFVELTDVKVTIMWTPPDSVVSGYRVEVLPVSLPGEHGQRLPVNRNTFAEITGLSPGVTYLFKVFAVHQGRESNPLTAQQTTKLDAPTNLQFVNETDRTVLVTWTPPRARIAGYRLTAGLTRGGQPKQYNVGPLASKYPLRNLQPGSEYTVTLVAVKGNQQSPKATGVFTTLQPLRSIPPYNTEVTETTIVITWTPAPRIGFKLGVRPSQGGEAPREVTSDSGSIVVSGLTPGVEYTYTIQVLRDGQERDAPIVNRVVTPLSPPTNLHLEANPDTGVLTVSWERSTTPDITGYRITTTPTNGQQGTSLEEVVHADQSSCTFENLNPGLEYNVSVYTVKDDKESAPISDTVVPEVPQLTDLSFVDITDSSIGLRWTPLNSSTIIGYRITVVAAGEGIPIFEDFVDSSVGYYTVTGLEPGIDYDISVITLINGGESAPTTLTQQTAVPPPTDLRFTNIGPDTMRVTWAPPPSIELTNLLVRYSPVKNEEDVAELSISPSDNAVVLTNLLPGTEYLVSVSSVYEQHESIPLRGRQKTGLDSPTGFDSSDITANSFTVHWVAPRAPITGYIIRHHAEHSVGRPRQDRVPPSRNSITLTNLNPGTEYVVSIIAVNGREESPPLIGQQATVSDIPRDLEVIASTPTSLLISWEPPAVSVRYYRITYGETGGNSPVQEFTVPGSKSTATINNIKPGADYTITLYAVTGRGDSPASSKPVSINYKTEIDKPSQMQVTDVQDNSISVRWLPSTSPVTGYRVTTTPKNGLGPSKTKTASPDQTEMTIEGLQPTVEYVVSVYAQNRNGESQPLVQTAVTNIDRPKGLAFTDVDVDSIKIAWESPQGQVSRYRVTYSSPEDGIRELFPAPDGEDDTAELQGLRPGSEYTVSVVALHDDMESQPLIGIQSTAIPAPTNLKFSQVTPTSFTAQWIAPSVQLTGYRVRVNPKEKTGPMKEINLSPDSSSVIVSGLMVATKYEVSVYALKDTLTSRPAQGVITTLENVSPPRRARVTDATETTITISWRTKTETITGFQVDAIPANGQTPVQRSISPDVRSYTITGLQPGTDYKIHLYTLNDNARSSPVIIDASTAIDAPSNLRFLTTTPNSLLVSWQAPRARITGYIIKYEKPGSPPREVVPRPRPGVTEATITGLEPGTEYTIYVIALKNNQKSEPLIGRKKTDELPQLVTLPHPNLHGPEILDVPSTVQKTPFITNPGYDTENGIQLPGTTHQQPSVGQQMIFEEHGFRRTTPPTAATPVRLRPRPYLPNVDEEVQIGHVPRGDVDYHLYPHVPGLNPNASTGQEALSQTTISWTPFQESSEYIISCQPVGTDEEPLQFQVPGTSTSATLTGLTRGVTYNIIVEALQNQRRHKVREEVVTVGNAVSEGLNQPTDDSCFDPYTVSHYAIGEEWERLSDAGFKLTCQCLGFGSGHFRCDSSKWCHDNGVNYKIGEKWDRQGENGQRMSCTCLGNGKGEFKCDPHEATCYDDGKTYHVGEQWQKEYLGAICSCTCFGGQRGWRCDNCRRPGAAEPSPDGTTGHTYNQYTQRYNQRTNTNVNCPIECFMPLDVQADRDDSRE

Assays:
[1] = target: Recombinant human 70kD protein (N-terminal 70kD fragment of fibronectin) (human) (UniProt P02751); assay: phage ELISA on 70kD-coated plastic; + is mean signal higher than 3x negative control
[2] = substrate: FN matrix (fibronectin fibrils) assembled by NIH 3T3 fibroblasts (UniProt P11276); assay: phage incubated with fibroblasts as they assembled fibrils
[3] = substrate: FN matrix (fibronectin fibrils) assembled by NIH 3T3 fibroblasts (UniProt P11276); assay: phage and FN immunofluorescence on fibroblast monolayers (Matrix Binding column)
[4] = substrate: FN matrix (fibronectin fibrils) assembled by NIH 3T3 fibroblasts (UniProt P11276); assay: high concentration phage stock incubated with fibroblast monolayers, co-stained for phage and FN
[5] = substrate: FN matrix (fibronectin fibrils) assembled by NIH 3T3 fibroblasts (UniProt P11276); assay: fixed confluent NIH 3T3 fibroblasts incubated with phage, co-stained for M13 phage and FN
[6] = substrate: FN matrix (fibronectin fibrils) assembled by NIH 3T3 fibroblasts (UniProt P11276); assay: phage incubated with NIH 3T3 fibroblasts, stained for FN and phage (FIGS. 4A-4C)
[7] = substrate: FN matrix (fibronectin fibrils) assembled by NIH 3T3 fibroblasts (UniProt P11276); assay: phage characterization on FN matrix

B1: M13 phage clone 1 displaying … (peptide, not shown: large carriers)
chain: VSGYNVMPLNGD
- binding [1]: binds

B2: M13 phage clone 12 (12, 29) displaying … (peptide, not shown: large carriers)
chain: DYSYFDLWYSDT
- binding [1]: binds
- binding [2]: binds
- binding [3]: binds
- binding [4]: binds

B3: M13 phage clone 13 (13, 30, 40) displaying … (peptide, not shown: large carriers)
chain: DHIQLSGASYFN
- binding [1]: binds

B4: M13 phage clone 14 displaying … (peptide, not shown: large carriers)
chain: HHIALSGSNSFG
- binding [1]: binds

B5: M13 phage clone 15 (15, 18) displaying … (peptide, not shown: large carriers)
chain: HQTYWMNLPGSY
- binding [1]: binds

B6: M13 phage clone 17 displaying … (peptide, not shown: large carriers)
chain: DHSALRGTWTNR
- binding [1]: binds

B7: M13 phage clone 19 (19, 24, 32, 41, 45) displaying … (peptide, not shown: large carriers)
chain: DHIPLRGQRVWQ
- binding [1]: binds

B8: M13 phage clone 20 (20, 21, 46) displaying … (S20) (peptide, not shown: large carriers)
chain: SDITPWWLLAQD
- binding [1]: binds

B9: M13 phage clone 23 displaying … (peptide, not shown: large carriers)
chain: YVTNWGSLSGSY
- binding [1]: binds

B10: M13 phage clone 26 displaying … (peptide, not shown: large carriers)
chain: LETDWRSLSHMS
- binding [1]: binds

B11: M13 phage clone 34 displaying … (peptide, not shown: large carriers)
chain: DHIDVMGFTVFK
- binding [1]: binds

B12: M13 phage clone 2 (2, 16, 31, 48) displaying … (S2) (peptide, not shown: large carriers)
chain: GSYDWTKLPGLE
- binding [1]: binds
- binding [5]: binds
- binding [2]: binds
- binding [6]: binds
- binding [3]: binds
- binding [4]: binds
- binding [7]: binds

B13: M13 phage clone 36 displaying … (peptide, not shown: large carriers)
chain: HPTDWMNLPALS
- binding [1]: binds

B14: M13 phage clone 37 displaying … (peptide, not shown: large carriers)
chain: WHVALTGNNLER
- binding [1]: binds

B15: M13 phage clone 39 displaying … (peptide, not shown: large carriers)
chain: YSTTMWQYLPGA
- binding [1]: binds
- binding [2]: binds
- binding [3]: binds

B16: M13 phage clone 47 displaying … (peptide, not shown: large carriers)
chain: NHVPLSGFSRTP
- binding [1]: binds

B17: M13 phage clone 3 (3, 5, 27, 28) displaying … (S3) (peptide, not shown: large carriers)
chain: NHVALWGTGTAS
- binding [1]: binds

B18: M13 phage clone 4 (4, 44) displaying … (peptide, not shown: large carriers)
chain: HNQTMWWTFPST
- binding [1]: binds

B19: M13 phage clone 6 (6, 35) displaying … (peptide, not shown: large carriers)
chain: SITEFNLLPGLW
- binding [1]: binds

B20: M13 phage clone 7 (7, 22, 38) displaying AHB… (peptide, not shown: large carriers)
chain: AHBRLSGSAPMF
- binding [1]: binds

B21: M13 phage clone 8 displaying … (peptide, not shown: large carriers)
chain: HITNWLSLSSYE
- binding [1]: binds

B22: M13 phage clone 9 (9, 42) displaying … (peptide, not shown: large carriers)
chain: HWSGTHALSGRA
- binding [1]: binds

B23: M13 phage clone 11 displaying … (peptide, not shown: large carriers)
chain: DHVSLSGRSAAM
- binding [1]: binds
